According to patent US12427134B2, “Methods of reducing the risk of cardiovascular events in a subject with atrial fibrillation and/or atrial flutter” (priority 2019, dated 2025):
For at least one compound, name, drawing or mass did not settle the structure.

Key:
[1] = tested on: hypertriglyceridemic patients with cardiovascular disease or at high risk for cardiovascular disease; assay: REDUCE-IT: time to first occurrence of adjudicated cardiovascular endpoint events (primary, key secondary, other secondary, tertiary; sensitivity and landmark analyses); format: in vivo
Description: The following study, also referred to as the REDUCE-IT clinical trial, was a large cardiovascular (CV) outcome trial designed to assess CV risk reduction benefit of AMR101 treatment (commercially known as VASCEPA®) versus placebo on the 5-point primary composite endpoint: CV death, non-fatal stroke, non-fatal myocardial infarction (MI), coronary revascularizations, or unstable angina requiring hospitalization.
A multi-center, prospective, randomized, double-blind, placebo-controlled, parallel-group study was performed to evaluate the effect of AMR101 (4 g per day) on cardiovascular health and mortality in hypertriglyceridemic patients with cardiovascular disease or at high risk for cardiovascular disease. The intended expanded indication of the study was treatment with AMR101 as an add-on to statin therapy to reduce the risk of cardiovascular events in patients with clinical cardiovascular disease or with multiple risk factors for cardiovascular disease.
The primary objective of this study was, in patients at LDL-C goal while on statin therapy, with established cardiovascular disease (CVD) or at high risk for CVD, and hypertriglyceridemia (e.g., fasting triglycerides (TG) ≥200 mg/dL and <500 mg/dL), to evaluate the effect of AMR101 4 g daily on time from randomization to first occurrence of any component of the composite of the following major CV events: CV death; nonfatal MI; (including silent MI; electrocardiograms (ECGs) were performed annually for the detection of silent MIs); nonfatal stroke; coronary revascularization; and unstable angina determined to be caused by myocardial ischemia by invasive/non-invasive testing and requiring emergent hospitalization.
The key secondary objective of this study was to evaluate the effect of AMR101 4 g daily on the time from randomization to the first occurrence of the composite of following major CV events: CV death, nonfatal MI (including silent MI), and nonfatal stroke.
Other secondary objectives for this study were to evaluate the effect of therapy on time from randomization to the first occurrence of the following individual or composite endpoints: composite of CV death or nonfatal MI (including silent MI); fatal or nonfatal MI (including silent MI); non-elective coronary revascularization represented as the composite of emergent or urgent classifications; CV death; unstable angina determined to be caused by myocardial ischemia by invasive/non-invasive testing and requiring emergent hospitalization; fatal or nonfatal stroke; composite of total mortality, nonfatal MI (including silent MI), or nonfatal stroke; and total mortality.
The key tertiary objectives for this study were to evaluate the effect of AMR101 4 g daily from baseline and percent change from baseline in fasting triglycerides and LDL-C. […]

[2] = tested on: hypertriglyceridemic patients with cardiovascular disease or at high risk for cardiovascular disease; assay: REDUCE-IT: subgroup analyses of the primary and key secondary endpoints; format: in vivo, human; settings: ITT
Method: Exploratory Subgroup Analyses: Analyses of the effects that patients off study drug and withdrawn from study have on the primary endpoint were performed. Subgroup analyses of the primary and key secondary endpoints were performed as described for the primary endpoint. For each subgroup, Kaplan-Meier estimates, the log-rank test stratified by stratification factors used at randomization (except where the subgroup was a stratification factor), and HRs and CIs from the Cox proportional hazards model as specified for the primary efficacy endpoint, were summarized by treatment group. Demographic, disease, treatment, and baseline lipid and lipoproteins parameters were explored.
Demographic parameters included: Gender; age at baseline (<65 years and ≥65 years); race (white and nonwhite, or any other subset with at least 10% of the total number of patients); geographical region (Westernized, Eastern European, and Asia Pacific countries); and baseline ezetimibe use (yes/no).
Disease parameters included: CV risk category; the presence/absence of diabetes at baseline; and renal dysfunction at baseline (estimated glomerular filtration rate [eGFR]<60 mL/min/1.73 m^2) using the Chronic Kidney Disease Epidemiology Collaboration (CKD-EPI) equation as follows: eGFR=141×min(Scr/κ,1)^α×max(Scr/κ,1)^[…]^Age×1.018 [if female]×1.159 [if black]
Treatment Parameters included: Statin intensity at baseline (statin type and regimen); and statin intensity categories as defined in ACC/AHA Cholesterol Guidelines (Stone 2013) and patient's 10-year CV Risk Score (Goff 2013).
Baseline Lipid and Lipoprotein Parameter included: LDL-C (by tertile); HDL-C (by tertile, and tertile by gender); TG (by tertile, and tertile by gender); RLP-C (by tertile); TG ≥150 mg/dL and TG <150 mg/dL; TG ≥200 mg/dL and TG <200 mg/dL; TG ≥median, TG <median; combined highest tertile for TG and lowest tertile for HDL-C; gender-specific highest tertile for TG and lowest tertile for HDL-C; TG ≥200 mg/dL with HDL-C ≤35 mg/dL; hsCRP (≤3 mg/L and >3 mg/L) and by gender; hsCRP (≤2 mg/L and >2 mg/L) and by gender; Apo B (by tertile); non-HDL-C (by tertile); baseline hemoglobin A1c (Hb1c) value (<6.5%, ≥6.5%); baseline PAD; and baseline TG levels ≥150 mg/dL with high-density lipoprotein cholesterol (HDL-C) levels ≤40 mg/dL for males and ≤50 mg/dL for females.
A Cox proportional hazard (PH) model as mentioned above but additionally with baseline TG as a covariate were fitted to the data at each interim. Diagnostic plots for the PH assumption were evaluated. The consistency of the treatment effects in subgroups was assessed for the primary and key secondary efficacy endpoints. For each subgroup variable, a Cox PH model with terms for treatment, stratification factors (with the exception of those subgroup variables related to the stratification factors, i.e., CV risk category), subgroup, and treatment-by-subgroup interaction were performed. The main treatment effect was tested with this model. P-values for testing the interaction terms <0.15 were considered significant. Results were presented in a Forest plot.
Subgroup analyses of the primary and key secondary endpoints were performed as described for the primary endpoint. For each subgroup, Kaplan-Meier estimates, the log-rank test stratified by stratification factors used at randomization (except where the subgroup was a stratification factor), and HRs and CIs from the Cox proportional hazards model as specified for the primary efficacy endpoint, were summarized by treatment group. All subgroup analyses were conducted for the ITT, mITT and PP populations.
Of note regarding the following subgroup analyses, per study design, subgroup analyses are underpowered to detect statistically significant results within each individual subgroup, particularly when a subgroup represents less than 50% of the enrolled population, and when a subgroup has low event rates. […]

[3] = clinically adjudicated arrhythmia sequelae, safety population
[4] = tertiary endpoint, first occurrence, ITT

For CC/C=C\C/C=C\C/C=C\C/C=C\C/C=C\CCCC(=O)OCC [AMR101, eicosapentaenoic acid ethyl ester], the “Any Myocardial Infarction, events n/N” value [1, 3] was 250/4089, the “Any Stroke, events n/N” value [1, 3] was 98/4089 and the “Cardiac Arrest, events n/N” value [1, 3] was 22/4089. The “Carotid Revascularization, events n/N” value [1, 3] was 31/4089, the “Transient Ischemic Attack, events n/N” value [1, 3] was 64/4089 and the “New Onset Hypertension, patients with event n/N” value ([1]; determined programmatically, ITT) was 13/4089. The “New Onset Type 2 Diabetes, patients with event n/N” value ([1]; excludes patients with Type 1 or Type 2 diabetes at baseline, ITT) was 65/1695, the “Amputation for PVD, patients with event n/N” value [1, 4] was 22/4089 and the “Cardiac Arrest, patients with event n/N” value [1, 4] was 22/4089. The “Carotid Revascularization, patients with event n/N” value [1, 4] was 31/4089, the “Elective Revascularization, patients with event n/N” value [1, 4] was 194/4089 and the “Emergent Revascularization, patients with event n/N” value [1, 4] was 41/4089. The “Hemorrhagic Stroke, patients with event n/N” value [1, 4] was 13/4089, the “Ischemic Stroke, patients with event n/N” value [1, 4] was 80/4089 and the “Newly Emergent CHF Requiring Hospitalization, patients with event n/N” value [1, 4] was 141/4089. For the same compound, the “Newly Emergent CHF, patients with event n/N” value [1, 4] was 169/4089, the “Peripheral Artery Disease, patients with event n/N” value [1, 4] was 156/4089 and the “Salvage Revascularization, patients with event n/N” value [1, 4] was 0/4089. For the same compound, the “Transient Ischemic Attack, patients with event n/N” value [1, 4] was 64/4089, the “Urgent Revascularization, patients with event n/N” value [1, 4] was 181/4089 and the “Primary endpoint, patients with event n/N” value (“Primary endpoint, patients” for short) ([2]; Baseline HbA1c <6.5%) was 378/2289. The “Primary endpoint, patients” value ([2]; Baseline TG <150 mg/dL or HDL-C >40 mg/dL (Males) or >50 mg/dL (Females)) was 303/1665, the “Primary endpoint, patients” value ([2]; Baseline TG ≥150 mg/dL and HDL-C ≤40 mg/dL (Males) or ≤50 mg/dL (Females)) was 399/2414 and the “Primary endpoint, patients” value ([2]; Males, Baseline hsCRP >2 mg/L) was 304/1415. The “Primary endpoint, patients” value ([2]; Males, Baseline hsCRP ≤2 mg/L) was 247/1510, the “Primary endpoint, patients” value ([2]; Males, HDL-C Lowest Tertile (≥17 to ≤35.5 mg/dL)) was 201/1060 and the “Primary endpoint, patients” value ([2]; Overall (Males and Females), Baseline hsCRP >2 mg/L) was 417/2167. For the same compound, the “Primary endpoint, patients” value ([2]; Overall (Males and Females), Baseline hsCRP ≤2 mg/L) was 288/1919, the “Primary endpoint, patients” value ([2]; Overall (Males and Females), HDL-C Highest Tertile (>43.5 to ≤107.5 mg/dL)) was 212/1337 and the “Primary endpoint, patients” value ([2]; Overall (Males and Females), HDL-C Lowest Tertile (≥17 to ≤36.5 mg/dL)) was 257/1416. For the same compound, the “Primary endpoint, patients” value ([2]; Overall (Males and Females), HDL-C Middle Tertile (>36.5 to ≤43.5 mg/dL)) was 233/1324, the “Primary endpoint, patients” value ([2]; Overall (Males and Females), Highest tertile for baseline TG and lowest tertile for baseline HDL-C (No)) was 247/1516 and the “Primary endpoint, patients” value ([2]; Overall (Males and Females), TG Highest Tertile (>250 to ≤1401 mg/dL)) was 226/1338. The “Primary endpoint, patients” value ([2]; Overall (Males and Females), TG Lowest Tertile (≥81.25 to ≤190 mg/dL)) was 233/1378, the “Primary endpoint, patients” value ([2]; Overall (Males and Females), TG Middle Tertile (>190 to ≤250 mg/dL)) was 246/1370 and the “Primary endpoint, patients” value ([2]; PAD History - No) was 602/3702. The “Primary endpoint, patients” value ([2]; PAD History - Yes) was 103/387, the “Primary endpoint, patients” value ([2]; RLP-C (Derived) Highest Tertile (>34.30 to ≤105.86 mg/dL)) was 238/1339 and the “Primary endpoint, patients” value ([2]; RLP-C (Derived) Lowest Tertile (≥11.89 to ≤28.09 mg/dL)) was 230/1347. For the same compound, the “Primary endpoint, patients” value ([2]; RLP-C (Derived) Middle Tertile (>28.09 to ≤34.30 mg/dL)) was 234/1391, the “Primary endpoint, patients” value ([2]; TG Lower Half (≥81.25 and ≤216 mg/dL)) was 353/2041 and the “Primary endpoint, patients” value ([2]; TG Upper Half (>216 and ≤1401 mg/dL)) was 352/2045.
